# Data taken from the supplement of paper PMC8728848.
# Some of the results follow.
# B1: MtEccB1 (Mycobacterium tuberculosis H37Rv), O69734 (protein)
# chain: MGLRLTTKVQVSGWRFLLRRLEHAIVRRDTRMFDDPLQFYSRSIALGIVVAVLILAGAALLAYFKPQGKLGGTSLFTDRATNQLYVLLSGQLHPVYNLTSARLVLGNPANPATVKSSELSKLPMGQTVGIPGAPYATPVSAGSTSIWTLCDTVARADSTSPVVQTAVIAMPLEIDASIDPLQSHEAVLVSYQGETWIVTTKGRHAIDLTDRALTSSMGIPVTARPTPISEGMFNALPDMGPWQLPPIPAAGAPNSLGLPDDLVIGSVFQIHTDKGPQYYVVLPDGIAQVNATTAAALRATQAHGLVAPPAMVPSLVVRIAERVYPSPLPDEPLKIVSRPQDPALCWSWQRSAGDQSPQSTVLSGRHLPISPSAMNMGIKQIHGTATVYLDGGKFVALQSPDPRYTESMYYIDPQGVRYGVPNAETAKSLGLSSPQNAPWEIVRLLVDGPVLSKDAALLEHDTLPADPSPRKVPAGASGAP
# Experiments:
# Assay in all cases: glycan array binding signal (z-score within array); higher = stronger binding
# Conditions in all cases: glycan notation: IUPAC condensed, linker removed
# [1] = target: Fuc(a1-2)Gal
# Summary of the method: (§1)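 Negative Z-scores can be read as non-binding. The Z-score is calculated within each array and then averaged across arrays of one protein sequence at different concentrations or buffers and across linkers. Arrays, 3228 in all, were curated from the Consortium for Functional Glycomics database and kept only where the protein sequence was available.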
# [2] = target: Fuc(a1-2)Gal(b1-3)GalNAc
# Summary of the method: as §1
# [3] = target: Fuc(a1-2)Gal(b1-3)GalNAc(a1-3)[Fuc(a1-2)]Gal(b1-4)Glc
# Summary of the method: as §1
# [4] = target: Fuc(a1-2)Gal(b1-3)GalNAc(a1-3)[Fuc(a1-2)]Gal(b1-4)GlcNAc
# Summary of the method: as §1
# [5] = target: Fuc(a1-2)Gal(b1-3)GalNAc(b1-3)Gal
# Summary of the method: as §1
# [6] = target: Fuc(a1-2)Gal(b1-3)GalNAc(b1-3)Gal(a1-4)Gal(b1-4)Glc
# Summary of the method: as §1
# [7] = target: Fuc(a1-2)Gal(b1-3)GalNAc(b1-4)[Neu5Ac(a2-3)]Gal(b1-4)Glc
# Summary of the method: as §1
# [8] = target: Fuc(a1-2)Gal(b1-3)GlcNAc
# Summary of the method: as §1
# [9] = target: Fuc(a1-2)Gal(b1-3)GlcNAc(b1-2)Man(a1-3)[Fuc(a1-2)Gal(b1-3)GlcNAc(b1-2)Man(a1-6)]Man(b1-4)GlcNAc(b1-4)GlcNAc
# Summary of the method: as §1
# [10] = target: Fuc(a1-2)Gal(b1-3)GlcNAc(b1-2)Man(a1-3)[Fuc(a1-2)Gal(b1-3)GlcNAc(b1-2)Man(a1-6)]Man(b1-4)GlcNAc(b1-4)[Fuc(a1-6)]GlcNAc
# Summary of the method: as §1
# [11] = target: Fuc(a1-2)Gal(b1-3)GlcNAc(b1-3)Gal(b1-4)Glc
# Summary of the method: as §1
# [12] = target: Fuc(a1-2)Gal(b1-3)GlcNAc(b1-3)GalNAc
# Summary of the method: as §1
# [13] = target: Fuc(a1-2)Gal(b1-3)GlcNAc(b1-3)[Fuc(a1-2)Gal(b1-3)GlcNAc(b1-6)]GalNAc
# Summary of the method: as §1
# [14] = target: Fuc(a1-2)Gal(b1-3)GlcNAc(b1-3)[Gal(b1-4)GlcNAc(b1-6)]Gal(b1-4)Glc
# Summary of the method: as §1
# [15] = target: Fuc(a1-2)Gal(b1-3)GlcNAc(b1-3)[Neu5Ac(a2-6)Gal(b1-4)GlcNAc(b1-6)]Gal(b1-4)Glc
# Summary of the method: as §1
# [16] = target: Fuc(a1-2)Gal(b1-3)GlcNAc6S
# Summary of the method: as §1
# [17] = target: Fuc(a1-2)Gal(b1-3)[Fuc(a1-4)]GlcNAc
# Summary of the method: as §1
# [18] = target: Fuc(a1-2)Gal(b1-3)[Fuc(a1-4)]GlcNAc(b1-2)Man(a1-3)[Fuc(a1-2)Gal(b1-3)[Fuc(a1-4)]GlcNAc(b1-2)Man(a1-3)]Man(b1-4)GlcNAc(b1-4)GlcNAc
# Summary of the method: as §1
# [19] = target: Fuc(a1-2)Gal(b1-3)[Fuc(a1-4)]GlcNAc(b1-2)Man(a1-3)[Fuc(a1-2)Gal(b1-3)[Fuc(a1-4)]GlcNAc(b1-2)Man(a1-6)]Man(b1-4)GlcNAc(b1-4)[Fuc(a1-6)]GlcNAc(b1-4)[Fuc(a1-6)]GlcNAc
# Summary of the method: as §1
# [20] = target: Fuc(a1-2)Gal(b1-3)[Fuc(a1-4)]GlcNAc(b1-3)[Fuc(a1-3)[Gal(b1-4)]GlcNAc(b1-6)]Gal(b1-4)Glc
# Summary of the method: as §1
# [21] = target: Fuc(a1-2)Gal(b1-3)[Fuc(a1-4)]GlcNAc(b1-3)[Gal(b1-4)GlcNAc(b1-6)]Gal(b1-4)Glc
# Summary of the method: as §1
# [22] = target: Fuc(a1-2)Gal(b1-4)Fuc(a1-3)]GlcNAc(b1-2)Man(a1-3)[Fuc(a1-2)Gal(b1-4)[Fuc(a1-3)]GlcNAc(b1-2)Man(a1-6)]Man(b1-4)GlcNAc(b1-4)GlcNAc
# Summary of the method: as §1
# [23] = target: Fuc(a1-2)Gal(b1-4)Glc
# Summary of the method: as §1
# [24] = target: Fuc(a1-2)Gal(b1-4)Glc6S
# Summary of the method: as §1
# [25] = target: Fuc(a1-2)Gal(b1-4)GlcNAc
# Summary of the method: as §1
# [26] = target: Fuc(a1-2)Gal(b1-4)GlcNAc(b1-2)Man
# Summary of the method: as §1
# [27] = target: Fuc(a1-2)Gal(b1-4)GlcNAc(b1-2)Man(a1-3)[Fuc(a1-2)Gal(b1-4)GlcNAc(b1-2)Man(a1-6)]Man(b1-4)GlcNAc(b1-4)GlcNAc
# Summary of the method: as §1
# [28] = target: Fuc(a1-2)Gal(b1-4)GlcNAc(b1-2)Man(a1-3)[Fuc(a1-2)Gal(b1-4)GlcNAc(b1-2)Man(a1-6)]Man(b1-4)GlcNAc(b1-4)[Fuc(a1-6)]GlcNAc
# Summary of the method: as §1
# [29] = target: Fuc(a1-2)Gal(b1-4)GlcNAc(b1-2)[Fuc(a1-2)Gal(b1-4)GlcNAc(b1-4)]Man(a1-3)[Fuc(a1-2)Gal(b1-4)GlcNAc(b1-2)Man(a1-6)]Man(b1-4)GlcNAc(b1-4)GlcNAc
# Summary of the method: as §1
# [30] = target: Fuc(a1-2)Gal(b1-4)GlcNAc(b1-3)Gal(b1-4)GlcNAc
# Summary of the method: as §1
binder,measurement,setting,value
B1,glycan array binding signal (z-score),[1],-0.548
same,glycan array binding signal (z-score),[2],-0.692
same,glycan array binding signal (z-score),[3],-1.05
same,glycan array binding signal (z-score),[4],-0.826
same,glycan array binding signal (z-score),[5],-1.11
same,glycan array binding signal (z-score),[6],-0.405
same,glycan array binding signal (z-score),[7],-0.249
same,glycan array binding signal (z-score),[8],-0.229
same,glycan array binding signal (z-score),[9],1.17
same,glycan array binding signal (z-score),[10],-0.664
same,glycan array binding signal (z-score),[11],-0.246
same,glycan array binding signal (z-score),[12],-1.4
same,glycan array binding signal (z-score),[13],-0.346
same,glycan array binding signal (z-score),[14],0.321
same,glycan array binding signal (z-score),[15],-0.773
same,glycan array binding signal (z-score),[16],-0.141
same,glycan array binding signal (z-score),[17],-0.545
same,glycan array binding signal (z-score),[18],1
same,glycan array binding signal (z-score),[19],0.829
same,glycan array binding signal (z-score),[20],-0.855
same,glycan array binding signal (z-score),[21],-0.485
same,glycan array binding signal (z-score),[22],0.79
same,glycan array binding signal (z-score),[23],-0.705
same,glycan array binding signal (z-score),[24],-0.973
same,glycan array binding signal (z-score),[25],0.445
same,glycan array binding signal (z-score),[26],0.619
same,glycan array binding signal (z-score),[27],-0.208
same,glycan array binding signal (z-score),[28],0.26
same,glycan array binding signal (z-score),[29],0.186
same,glycan array binding signal (z-score),[30],-0.199

# A run of entries taken from the entries so far, for reference:
binder,measurement,setting,value
B1,glycan array binding signal (z-score),[2],-0.692
same,glycan array binding signal (z-score),[3],-1.05
